{"source": "the supplement of paper PMC10849652", "assay_in_all_cases": "log2 fold change, soluble protein after heating vs DMSO (PISA); higher = thermal stabilisation; K562 lysate, 10 uM; active = over 0.2 and 3.5 SD of the protein, either way, in both replicates (recomputed)", "key": {"[1]": {"compound": "C1=CC=C(C=C1)[C@H](COC2=CC3=C(C=C2)NC(=O)N3)NC(=O)C4=CC=CN(C4=O)CC5=CC(=C(C=C5)F)F", "how_it_was_run": "(§1)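 A 30 min treatment with 10 μM compound was applied to crude K562 extract at 1 mg/mL protein in PBS pH 7.4 with 1 mM MgCl2. Heating for 3 min spanned 48°C-58°C, after which aliquots were pooled, adjusted to 0.5% NP-40 at 4°C and spun at 21,000xg for 90 min. TMTpro 16plex LC-MS/MS of the supernatant, with channel sums equalised, gave values recorded as log-two fold change in thermal stability against solvent controls, from duplicates.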"}, "[2]": {"compound": "CC1=C(SC2=C1C(=N[C@H](C3=NN=C(N32)C)CC(=O)N)C4=CC=C(C=C4)Cl)C", "how_it_was_run": "as §1"}, "[3]": {"compound": "Cc1sc2c(c1C)C(c1ccc(Cl)cc1)=N[C@@H](CC(=O)OC(C)(C)C)c1nnc(C)n1-2", "how_it_was_run": "as §1"}, "[4]": {"compound": "c1ccc([C@@H]2C[C@H]2NC2CCNCC2)cc1", "how_it_was_run": "as §1"}, "[5]": {"compound": "CC1=C2C(=CC=C1)N=C(N(C2=O)C3=CC=CC=C3C)CN4C=NC5=C(N=CN=C54)N", "how_it_was_run": "as §1"}}, "note": "Some of the results follow.", "data": [{"target": "URI1 isoform 4 (UniProt O94763)", "values": [{"measurement": "log2 fold change", "setting": "[1]", "result": "inactive: 0.042"}, {"measurement": "log2 fold change", "setting": "[2]", "result": "inactive: -0.099"}, {"measurement": "log2 fold change", "setting": "[3]", "result": "inactive: 0.025"}, {"measurement": "log2 fold change", "setting": "[4]", "result": "inactive: -0.089"}]}, {"target": "VEGFA (UniProt H0YBI8)", "values": [{"measurement": "log2 fold change", "setting": "[4]", "result": "inactive: -0.183"}]}, {"target": "VGF (UniProt O15240)", "values": [{"measurement": "log2 fold change", "setting": "[5]", "result": "inactive: -0.07"}, {"measurement": "log2 fold change", "setting": "[3]", "result": "inactive: 0"}]}, {"target": "VGLL4 isoform 4 (UniProt Q14135)", "values": [{"measurement": "log2 fold change", "setting": "[1]", "result": "inactive: 0.222"}, {"measurement": "log2 fold change", "setting": "[2]", "result": "inactive: 0.038"}, {"measurement": "log2 fold change", "setting": "[3]", "result": "inactive: -0.025"}, {"measurement": "log2 fold change", "setting": "[4]", "result": "inactive: 0.036"}]}, {"target": "USP30 (UniProt Q70CQ3)", "values": [{"measurement": "log2 fold change", "setting": "[3]", "result": "inactive: 0.302"}, {"measurement": "log2 fold change", "setting": "[4]", "result": "inactive: 0.116"}]}, {"target": "UNC13A (UniProt Q9UPW8)", "values": [{"measurement": "log2 fold change", "setting": "[4]", "result": "inactive: -0.966"}]}, {"target": "UNC119 (UniProt Q13432)", "values": [{"measurement": "log2 fold change", "setting": "[3]", "result": "inactive: 0.072"}]}, {"target": "VEGFA isoform 14 (UniProt P15692)", "values": [{"measurement": "log2 fold change", "setting": "[4]", "result": "inactive: -0.132"}]}, {"target": "URB1 (UniProt O60287)", "values": [{"measurement": "log2 fold change", "setting": "[5]", "result": "inactive: 0.031"}, {"measurement": "log2 fold change", "setting": "[3]", "result": "inactive: 0.015"}, {"measurement": "log2 fold change", "setting": "[4]", "result": "inactive: 0.741"}]}]}
